No constants are given. Whether binding was seen depends on the method and setting. Some results given as binding are weak or reduced against the parent protein; the word gives no strength.

Protein sequences, listed by entry. Tags and fused reporters are not part of them. Residues count along the entry.
UniProt P21802, residues 22-821: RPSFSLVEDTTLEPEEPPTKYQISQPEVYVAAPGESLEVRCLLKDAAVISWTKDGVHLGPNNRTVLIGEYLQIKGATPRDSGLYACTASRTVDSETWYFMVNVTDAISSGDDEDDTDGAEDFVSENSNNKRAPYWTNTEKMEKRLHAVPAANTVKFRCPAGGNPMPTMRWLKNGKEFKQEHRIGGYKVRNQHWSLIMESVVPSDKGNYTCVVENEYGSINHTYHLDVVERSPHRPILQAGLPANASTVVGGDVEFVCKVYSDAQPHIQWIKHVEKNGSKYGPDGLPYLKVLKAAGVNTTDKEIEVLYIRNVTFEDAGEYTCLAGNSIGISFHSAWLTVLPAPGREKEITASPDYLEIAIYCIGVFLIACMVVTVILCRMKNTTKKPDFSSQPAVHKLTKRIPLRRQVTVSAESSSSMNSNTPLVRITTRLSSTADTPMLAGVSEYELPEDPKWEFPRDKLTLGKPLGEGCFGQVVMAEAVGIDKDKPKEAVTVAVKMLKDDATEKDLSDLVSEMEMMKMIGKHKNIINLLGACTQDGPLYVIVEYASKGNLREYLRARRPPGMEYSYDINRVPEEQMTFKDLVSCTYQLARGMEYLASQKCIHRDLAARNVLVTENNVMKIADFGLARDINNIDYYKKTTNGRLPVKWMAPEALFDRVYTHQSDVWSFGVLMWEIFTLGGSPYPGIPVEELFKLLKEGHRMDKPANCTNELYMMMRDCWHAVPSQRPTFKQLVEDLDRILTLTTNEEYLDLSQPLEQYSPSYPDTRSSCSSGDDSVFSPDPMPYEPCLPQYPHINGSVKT

This experiment concerns the target FGFR2 on human dermal papilla cells (DPCs) (human (endogenous in primary dermal papilla cells)) (UniProt P21802). The experiment in a line: flow cytometry on cells. For orientation: Flow cytometry measures light scatter and fluorescence of single cells or particles in a stream.

For the molecule AVLKRLEQKGAEADQIIEYLKQQVSLLKEKAILQATLREEK (peptide, UniProt Q12904 6-46, biotin (EZ-Link Sulfo-NHS-LC-Biotinylation kit; sites not stated)) [TN41 (AIMP1 aa 6-46), biotinylated], the binding entry was “binds”.

The record behind these values is article doi:10.1101/2022.02.24.481761.
